Values quoted from earlier work as cited in patent US20240010729A1, “COMBINATION THERAPY OF A PD-1 ANTAGONIST AND LAG3 ANTAGONIST AND LENVATINIB OR A PHARMACEUTICALLY ACCEPTABLE SALT THEREOF FOR TREATING PATIENTS WITH CANCER” (MERCK SHARP & DOHME LLC, priority 2020, published 2024).
Some of these results come from one statement about several compounds together.

Tested on: mCRC that is non MSI-H/pMMR
Settings: third line mCRC patients; cited from earlier work

CNC(=O)c1cc(Oc2ccc(NC(=O)Nc3ccc(Cl)c(C(F)(F)F)c3)c(F)c2)ccn1 [regorafenib]
ORR: ≤ 2%
